Results taken from the supplement of paper PMC10849652.
This is one part of the list.

Chains of the proteins cited; added tags and fusions are not shown. Lines headed by an entry give the natural chain unless they say otherwise; changes in a name come on top.
UniProt Q6NT16: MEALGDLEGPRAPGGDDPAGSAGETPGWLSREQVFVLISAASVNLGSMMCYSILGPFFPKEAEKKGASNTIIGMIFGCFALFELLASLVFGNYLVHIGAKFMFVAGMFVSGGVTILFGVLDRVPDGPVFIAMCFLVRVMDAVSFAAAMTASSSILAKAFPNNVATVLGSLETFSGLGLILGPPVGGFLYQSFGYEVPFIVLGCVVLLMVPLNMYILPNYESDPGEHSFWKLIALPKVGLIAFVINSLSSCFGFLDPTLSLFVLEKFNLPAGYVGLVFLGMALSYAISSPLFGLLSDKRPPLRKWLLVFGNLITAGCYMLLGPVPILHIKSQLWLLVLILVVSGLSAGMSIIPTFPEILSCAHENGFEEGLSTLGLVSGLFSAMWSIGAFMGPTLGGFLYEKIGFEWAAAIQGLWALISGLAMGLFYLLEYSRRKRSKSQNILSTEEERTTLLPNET
UniProt Q9UP95: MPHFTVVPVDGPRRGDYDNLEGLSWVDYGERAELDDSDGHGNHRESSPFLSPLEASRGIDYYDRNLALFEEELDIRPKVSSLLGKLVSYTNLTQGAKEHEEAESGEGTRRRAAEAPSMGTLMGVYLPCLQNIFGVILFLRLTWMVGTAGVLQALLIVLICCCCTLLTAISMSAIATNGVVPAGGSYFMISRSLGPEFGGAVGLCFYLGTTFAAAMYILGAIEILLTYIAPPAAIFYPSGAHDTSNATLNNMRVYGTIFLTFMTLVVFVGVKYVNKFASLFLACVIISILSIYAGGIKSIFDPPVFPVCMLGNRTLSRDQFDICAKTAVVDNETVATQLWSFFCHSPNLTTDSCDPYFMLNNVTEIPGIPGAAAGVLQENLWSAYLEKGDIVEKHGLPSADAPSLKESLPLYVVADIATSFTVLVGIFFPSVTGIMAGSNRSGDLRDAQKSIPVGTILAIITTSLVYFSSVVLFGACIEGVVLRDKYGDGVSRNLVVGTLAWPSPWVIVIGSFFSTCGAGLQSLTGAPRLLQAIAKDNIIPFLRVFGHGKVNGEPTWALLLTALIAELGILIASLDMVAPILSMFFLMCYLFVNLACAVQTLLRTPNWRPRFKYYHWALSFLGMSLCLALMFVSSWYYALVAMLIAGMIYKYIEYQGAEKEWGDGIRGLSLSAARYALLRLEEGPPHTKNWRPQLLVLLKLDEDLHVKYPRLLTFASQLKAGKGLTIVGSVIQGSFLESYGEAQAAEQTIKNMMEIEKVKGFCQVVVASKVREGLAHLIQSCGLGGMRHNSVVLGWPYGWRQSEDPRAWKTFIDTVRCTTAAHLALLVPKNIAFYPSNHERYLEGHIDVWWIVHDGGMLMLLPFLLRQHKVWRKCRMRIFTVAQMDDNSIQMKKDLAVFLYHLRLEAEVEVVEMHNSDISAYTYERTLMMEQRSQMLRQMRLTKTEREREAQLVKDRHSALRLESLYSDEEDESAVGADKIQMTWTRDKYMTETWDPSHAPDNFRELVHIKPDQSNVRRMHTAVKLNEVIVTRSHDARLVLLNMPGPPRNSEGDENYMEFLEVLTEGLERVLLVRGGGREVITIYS
UniProt Q8TD22: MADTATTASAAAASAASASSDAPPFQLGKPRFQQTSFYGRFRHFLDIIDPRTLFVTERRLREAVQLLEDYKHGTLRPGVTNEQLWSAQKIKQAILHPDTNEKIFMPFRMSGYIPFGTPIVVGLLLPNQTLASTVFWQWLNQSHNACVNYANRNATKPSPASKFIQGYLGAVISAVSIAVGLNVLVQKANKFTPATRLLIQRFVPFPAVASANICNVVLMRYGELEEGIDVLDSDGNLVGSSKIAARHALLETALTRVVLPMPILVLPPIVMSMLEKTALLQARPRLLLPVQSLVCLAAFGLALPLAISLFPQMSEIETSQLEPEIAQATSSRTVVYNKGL
UniProt Q9BXP2: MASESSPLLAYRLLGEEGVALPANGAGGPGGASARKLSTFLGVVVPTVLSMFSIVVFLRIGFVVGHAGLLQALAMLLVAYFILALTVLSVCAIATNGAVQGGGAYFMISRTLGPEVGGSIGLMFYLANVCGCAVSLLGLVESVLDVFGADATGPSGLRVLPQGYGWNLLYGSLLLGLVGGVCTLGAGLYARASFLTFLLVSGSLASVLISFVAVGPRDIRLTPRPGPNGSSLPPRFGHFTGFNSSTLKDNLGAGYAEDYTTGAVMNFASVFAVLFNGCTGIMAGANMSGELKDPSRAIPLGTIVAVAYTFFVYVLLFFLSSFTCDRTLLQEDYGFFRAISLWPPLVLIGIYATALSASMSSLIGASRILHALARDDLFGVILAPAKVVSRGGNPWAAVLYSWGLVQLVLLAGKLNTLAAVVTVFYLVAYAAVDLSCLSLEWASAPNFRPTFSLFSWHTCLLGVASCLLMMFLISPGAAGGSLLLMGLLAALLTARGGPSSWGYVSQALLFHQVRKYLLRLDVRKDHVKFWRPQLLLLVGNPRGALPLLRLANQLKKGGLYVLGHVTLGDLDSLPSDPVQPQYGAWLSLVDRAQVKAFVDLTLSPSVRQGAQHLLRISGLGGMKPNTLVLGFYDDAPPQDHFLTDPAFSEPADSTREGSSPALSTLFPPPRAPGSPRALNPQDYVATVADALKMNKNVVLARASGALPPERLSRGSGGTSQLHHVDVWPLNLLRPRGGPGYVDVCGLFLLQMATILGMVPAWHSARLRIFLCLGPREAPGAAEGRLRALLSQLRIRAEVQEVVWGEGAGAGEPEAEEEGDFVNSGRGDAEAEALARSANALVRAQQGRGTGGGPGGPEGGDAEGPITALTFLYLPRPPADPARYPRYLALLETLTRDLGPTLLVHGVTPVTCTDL
UniProt Q96B97, whole entry, looked up: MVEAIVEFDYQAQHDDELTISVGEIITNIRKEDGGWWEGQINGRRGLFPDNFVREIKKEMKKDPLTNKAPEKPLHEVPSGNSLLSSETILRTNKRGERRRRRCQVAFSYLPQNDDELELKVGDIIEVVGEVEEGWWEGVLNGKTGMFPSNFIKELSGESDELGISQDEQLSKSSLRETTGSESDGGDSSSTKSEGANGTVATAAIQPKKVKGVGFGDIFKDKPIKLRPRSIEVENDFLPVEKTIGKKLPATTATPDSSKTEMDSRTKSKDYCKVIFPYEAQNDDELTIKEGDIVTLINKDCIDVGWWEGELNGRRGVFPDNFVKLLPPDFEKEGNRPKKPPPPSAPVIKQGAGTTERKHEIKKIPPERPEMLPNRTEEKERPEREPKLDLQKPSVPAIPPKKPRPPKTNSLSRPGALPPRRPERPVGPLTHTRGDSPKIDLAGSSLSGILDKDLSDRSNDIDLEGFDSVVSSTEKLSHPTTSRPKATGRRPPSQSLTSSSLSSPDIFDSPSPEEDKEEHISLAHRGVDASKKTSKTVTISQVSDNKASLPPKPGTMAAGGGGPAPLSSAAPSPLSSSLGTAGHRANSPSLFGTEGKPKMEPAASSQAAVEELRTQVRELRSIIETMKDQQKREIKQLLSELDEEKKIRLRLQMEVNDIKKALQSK
UniProt Q6P4A7: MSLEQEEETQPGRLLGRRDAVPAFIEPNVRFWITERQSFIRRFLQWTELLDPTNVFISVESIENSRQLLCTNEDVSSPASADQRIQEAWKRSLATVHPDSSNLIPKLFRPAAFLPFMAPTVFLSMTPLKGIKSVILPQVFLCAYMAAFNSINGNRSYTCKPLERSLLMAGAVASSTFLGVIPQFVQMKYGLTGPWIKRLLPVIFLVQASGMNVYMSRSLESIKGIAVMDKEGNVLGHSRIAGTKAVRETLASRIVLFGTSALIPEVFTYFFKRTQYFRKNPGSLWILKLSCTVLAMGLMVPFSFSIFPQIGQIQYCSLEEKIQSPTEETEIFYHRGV
UniProt Q9NP50: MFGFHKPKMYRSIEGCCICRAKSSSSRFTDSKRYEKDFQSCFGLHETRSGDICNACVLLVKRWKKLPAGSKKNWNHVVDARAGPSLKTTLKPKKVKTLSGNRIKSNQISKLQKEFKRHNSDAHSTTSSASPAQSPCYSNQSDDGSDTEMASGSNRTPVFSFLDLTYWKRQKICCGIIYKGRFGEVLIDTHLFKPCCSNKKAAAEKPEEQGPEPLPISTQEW
UniProt P34896: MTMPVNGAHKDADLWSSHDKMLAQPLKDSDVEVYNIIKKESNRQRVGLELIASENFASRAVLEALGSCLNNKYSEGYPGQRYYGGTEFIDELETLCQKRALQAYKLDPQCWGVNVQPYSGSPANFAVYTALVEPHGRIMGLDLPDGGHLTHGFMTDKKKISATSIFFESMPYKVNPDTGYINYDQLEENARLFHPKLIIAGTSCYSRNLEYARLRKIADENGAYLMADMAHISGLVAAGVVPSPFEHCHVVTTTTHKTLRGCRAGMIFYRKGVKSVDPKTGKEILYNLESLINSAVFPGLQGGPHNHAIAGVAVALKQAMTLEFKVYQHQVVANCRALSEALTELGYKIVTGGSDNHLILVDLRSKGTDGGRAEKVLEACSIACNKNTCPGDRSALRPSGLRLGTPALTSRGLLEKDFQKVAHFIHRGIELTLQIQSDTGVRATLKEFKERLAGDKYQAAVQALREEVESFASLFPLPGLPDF
UniProt Q9H0F6: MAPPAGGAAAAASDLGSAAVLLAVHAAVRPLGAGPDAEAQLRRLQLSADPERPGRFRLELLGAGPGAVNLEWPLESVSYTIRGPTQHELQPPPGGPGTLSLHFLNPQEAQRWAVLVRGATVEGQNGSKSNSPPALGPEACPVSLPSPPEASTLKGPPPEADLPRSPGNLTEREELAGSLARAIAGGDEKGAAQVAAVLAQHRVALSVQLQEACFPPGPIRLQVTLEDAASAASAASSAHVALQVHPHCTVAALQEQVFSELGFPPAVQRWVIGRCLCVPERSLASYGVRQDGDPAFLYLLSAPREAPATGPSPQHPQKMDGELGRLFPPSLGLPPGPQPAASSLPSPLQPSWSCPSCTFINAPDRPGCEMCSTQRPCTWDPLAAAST
UniProt Q9NR46: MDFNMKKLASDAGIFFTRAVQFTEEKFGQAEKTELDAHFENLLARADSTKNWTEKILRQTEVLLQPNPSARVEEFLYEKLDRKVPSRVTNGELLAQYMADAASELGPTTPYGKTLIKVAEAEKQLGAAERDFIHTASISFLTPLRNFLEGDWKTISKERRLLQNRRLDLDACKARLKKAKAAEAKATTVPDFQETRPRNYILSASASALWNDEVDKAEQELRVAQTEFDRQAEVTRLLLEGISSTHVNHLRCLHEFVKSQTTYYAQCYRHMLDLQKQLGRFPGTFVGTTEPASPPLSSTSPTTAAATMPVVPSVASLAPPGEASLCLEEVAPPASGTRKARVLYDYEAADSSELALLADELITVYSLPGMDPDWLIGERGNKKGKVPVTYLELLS
UniProt P43007: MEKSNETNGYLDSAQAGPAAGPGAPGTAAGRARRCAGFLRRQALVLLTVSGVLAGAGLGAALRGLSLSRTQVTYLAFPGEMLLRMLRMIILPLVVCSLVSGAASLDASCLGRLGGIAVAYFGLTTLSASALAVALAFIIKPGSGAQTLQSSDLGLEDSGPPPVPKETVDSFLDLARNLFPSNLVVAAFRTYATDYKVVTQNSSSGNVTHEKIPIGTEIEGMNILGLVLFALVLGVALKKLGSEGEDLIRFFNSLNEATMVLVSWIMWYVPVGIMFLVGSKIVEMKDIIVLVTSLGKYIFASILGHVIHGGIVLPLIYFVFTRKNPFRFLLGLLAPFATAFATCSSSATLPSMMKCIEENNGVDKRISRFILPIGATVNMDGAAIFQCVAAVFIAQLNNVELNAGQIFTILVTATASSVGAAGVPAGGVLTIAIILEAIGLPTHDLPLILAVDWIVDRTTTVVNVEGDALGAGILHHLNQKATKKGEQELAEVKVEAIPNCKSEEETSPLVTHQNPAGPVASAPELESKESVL
UniProt Q9UIU6: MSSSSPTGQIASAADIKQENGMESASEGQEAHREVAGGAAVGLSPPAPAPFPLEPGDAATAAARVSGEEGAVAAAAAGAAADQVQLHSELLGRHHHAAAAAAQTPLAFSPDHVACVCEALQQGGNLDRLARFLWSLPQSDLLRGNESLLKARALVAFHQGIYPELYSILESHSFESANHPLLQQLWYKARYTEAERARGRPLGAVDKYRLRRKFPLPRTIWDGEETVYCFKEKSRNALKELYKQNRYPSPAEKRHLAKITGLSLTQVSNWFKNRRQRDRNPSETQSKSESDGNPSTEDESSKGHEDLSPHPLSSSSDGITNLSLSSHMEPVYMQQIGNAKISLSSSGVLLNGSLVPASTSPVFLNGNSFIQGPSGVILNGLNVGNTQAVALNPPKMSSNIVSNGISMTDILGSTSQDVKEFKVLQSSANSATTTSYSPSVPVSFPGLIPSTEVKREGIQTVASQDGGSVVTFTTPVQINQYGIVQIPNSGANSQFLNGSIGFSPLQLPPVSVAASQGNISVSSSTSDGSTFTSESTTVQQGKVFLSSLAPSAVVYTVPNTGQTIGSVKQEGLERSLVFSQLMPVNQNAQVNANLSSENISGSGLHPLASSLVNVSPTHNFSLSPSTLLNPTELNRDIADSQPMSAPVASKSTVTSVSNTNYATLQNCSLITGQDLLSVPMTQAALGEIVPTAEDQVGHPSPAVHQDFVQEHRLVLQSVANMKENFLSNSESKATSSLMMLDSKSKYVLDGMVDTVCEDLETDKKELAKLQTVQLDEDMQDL

How the values were obtained:
Experiment in all cases: log2 fold change, soluble protein after heating vs DMSO (PISA); higher = thermal stabilisation; K562 lysate, 10 uM; active = over 0.2 and 3.5 SD of the protein, either way, in both replicates (recomputed)
erlotinib = compound: C#Cc1cccc(Nc2ncnc3cc(OCCOC)c(OCCOC)cc23)c1 [erlotinib]
Summary of the method: (§1)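 Pellets of K562 cells were dounce-homogenised in PBS pH 7.4 with 1 mM MgCl2, and the crude extract was held at 1 mg/mL protein for a 30 min treatment with 10 μM compound. Aliquots were heated for 3 min over 48°C-58°C and pooled before NP-40 was added to 0.5% at 4°C. The supernatant from 21,000xg for 90 min was quantified by TMTpro 16plex LC-MS/MS with channel sums equalised. Values are reported from duplicates as log-two fold change in thermal stability relative to solvent controls.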

[1] = compound: C/C(=N\NC(=O)C1=CC(=CC=C1)S(=O)(=O)N2CCOCC2)/C3=C(C=CC(=C3)Cl)O
Summary of the method: as §1

[2] = compound: C1=CC(=CC=C1C2=NC3=C(N2)C=C(C=C3)C(=O)N)OC4=CC=C(C=C4)Cl
Summary of the method: as §1

[3] = compound: C1=CC2=C(C=CC(=C2)/C=C\3/C(=O)NC(=NCC4=CC=CS4)S3)N=C1
Summary of the method: as §1

[4] = compound: C1=CC=C(C=C1)C2=NC(=C(N2)C3=CC=NC=C3)C4=CC(=C(C=C4)Cl)O
Summary of the method: as §1

[5] = compound: C1=CC=C2C(=C1)C3=NNC4=CC=CC(=C43)C2=O
Summary of the method: as §1

IRAK-1-4 Inhibitor I = compound: C1COCCN1CCN2C3=CC=CC=C3N=C2NC(=O)C4=CC(=CC=C4)[N+](=O)[O-] [IRAK-1-4 Inhibitor I]
Summary of the method: as §1

[6] = compound: C1=CC2=NC=CN=C2C=C1/C=C/3\C(=O)NC(=O)S3
Summary of the method: as §1

[7] = compound: C1CCN(C1)C(=O)NC2=CC=CC(=C2)NC3=NC=C(C(=N3)NCCC4=CN=CN4)Br
Summary of the method: as §1

[8] = compound: C1CN(CCC1(CC2=CC=C(C=C2)Cl)N)C3=NC=NC4=C3C=CN4
Summary of the method: as §1

Measured: log2 fold change

SLC18B1 (UniProt Q6NT16)
inactive: erlotinib -0.011 | [1] 0.065 | [2] -0.002 | [3] 0.001 | [4] -0.023 | [5] -0.017 | IRAK-1-4 Inhibitor I 0.054

SIPA1 (UniProt Q96FS4)
inactive: erlotinib -0.051 | [1] -0.161 | [2] 0.019 | [3] 0.064 | [6] -0.021 | [4] 0.022 | [5] -0.084 | [7] -0.067 | [8] 0.062 | IRAK-1-4 Inhibitor I 0.022

SIPA1L1 (UniProt O43166)
inactive: erlotinib 0.02 | [1] -0.161 | [2] -0.001 | [3] -0.022 | [6] -0.043 | [4] -0.061 | [5] 0.021 | [7] 0.022 | [8] 0.058 | IRAK-1-4 Inhibitor I -0.052

SLC12A4 (UniProt Q9UP95)
inactive: erlotinib -0.029 | [1] 0 | [2] -0.029 | [3] 0.079 | [6] 0.035 | [4] -0.041 | [5] -0.239 | [7] -0.078 | [8] 0.015 | IRAK-1-4 Inhibitor I -0.044

SETX isoform 4 (UniProt Q7Z333)
inactive: erlotinib 0.016 | [1] -0.215 | [2] 0.055 | [3] -0.032 | [4] 0.024 | [5] -0.001 | [7] -0.019 | [8] -0.017 | IRAK-1-4 Inhibitor I 0.016

SF1 isoform 6 (UniProt Q15637)
inactive: erlotinib 0.047 | [1] -0.052 | [2] -0.013 | [3] -0.094 | [6] 0.003 | [4] -0.349 | [5] 0.02 | [7] -0.011 | [8] 0.016 | IRAK-1-4 Inhibitor I 0.13

SLC11A2 isoform 3 (UniProt P49281)
inactive: erlotinib -0.005 | [1] -0.041 | [2] -0.009 | [3] -0.013 | [6] 0 | [4] 0.011 | [5] 0.046 | [7] -0.004 | [8] 0.026 | IRAK-1-4 Inhibitor I 0.024

SH3BP2 isoform 4 (UniProt P78314)
inactive: erlotinib -0.037 | [1] 0.213 | [2] 0.001 | [3] 0.044 | [6] -0.103 | [4] 0.088 | [5] -0.073 | IRAK-1-4 Inhibitor I 0.03

SIRT3 (UniProt Q9NTG7)
inactive: erlotinib -0.044 | [1] 0.054 | [2] -0.012 | [3] -0.046 | [4] -0.011 | [5] 0.201 | IRAK-1-4 Inhibitor I -0.036

SFXN5 (UniProt Q8TD22)
inactive: erlotinib -0.057 | [1] -0.052 | [2] -0.171 | [3] 0.013 | [4] -0.002 | [5] -0.029 | [7] 0.064 | [8] -0.08 | IRAK-1-4 Inhibitor I -0.034

SLC20A1 (UniProt Q8WUM9)
inactive: erlotinib 0.032 | [1] 0.059 | [2] 0.089 | [3] -0.097 | [6] 0.005 | [4] 0.02 | [5] 0.085 | [7] 0.069 | [8] 0.214 | IRAK-1-4 Inhibitor I 0.05

SLC12A9 (UniProt Q9BXP2)
inactive: erlotinib -0.033 | [1] -0.019 | [2] 0.02 | [3] -0.005 | [6] 0.036 | [4] 0.095 | [5] -0.028 | IRAK-1-4 Inhibitor I 0.01

SH3KBP1 (UniProt Q96B97)
inactive: erlotinib -0.01 | [2] 0.016 | [6] 0.014 | [4] -0.115 | [7] -0.04 | [8] -0.115 | IRAK-1-4 Inhibitor I 0.03

SFXN4 isoform 3 (UniProt Q6P4A7)
inactive: erlotinib -0.147 | [1] -0.322 | [2] 0.104 | [3] -0.143 | [6] -0.002 | [4] 0.089 | [5] -0.091 | [7] -0.122 | [8] 0.236 | IRAK-1-4 Inhibitor I 0.016

SKIL (UniProt P12757)
inactive: erlotinib 0.194 | [1] 0.063 | [2] 0.132 | [3] -0.035 | [4] 0.092 | [5] -0.084 | [7] -0.06 | [8] 0.129 | IRAK-1-4 Inhibitor I 0.022

SINHCAF (UniProt Q9NP50)
inactive: erlotinib 0.115 | [1] 0.377 | [2] -0.168 | [3] -0.906 | [4] -0.031 | [5] 0.015 | IRAK-1-4 Inhibitor I 0.079

SIAH2 (UniProt O43255)
inactive: erlotinib 0.009 | [1] -0.082 | [2] 0.004 | [3] 0.048 | [6] 0.049 | [5] 0.172

SLC22A18 (UniProt Q96BI1)
inactive: erlotinib -0.008 | [1] 0.043 | [2] -0.018 | [3] 0.049 | [6] -0.147 | [5] -0.03 | [7] -0.062 | [8] 0.004

SLC10A7 isoform 1 (UniProt Q0GE19)
inactive: erlotinib 0.054 | [1] -0.015 | [2] -0.02 | [3] -0.043 | [6] 0.066 | [4] 0.066 | [5] -0.018 | [7] -0.04 | [8] 0.088 | IRAK-1-4 Inhibitor I 0.002

SHMT2 (UniProt P34897)
inactive: erlotinib 0.001 | [1] 0.044 | [2] -0.005 | [3] -0.01 | [6] 0.012 | [4] -0.007 | [5] 0.02 | [7] 0.012 | [8] -0.01 | IRAK-1-4 Inhibitor I 0.025

SHMT1 (UniProt P34896)
inactive: erlotinib 0.005 | [1] -0.007 | [2] 0.012 | [3] -0.016 | [6] 0.006 | [4] -0.023 | [5] -0.013 | [7] 0.028 | [8] 0.013 | IRAK-1-4 Inhibitor I 0.014

SHARPIN (UniProt Q9H0F6)
inactive: erlotinib 0.088 | [1] 0.019 | [2] -0.157 | [3] 0.09 | [4] -0.081 | [5] -0.026 | [7] 0.013 | [8] 0.022 | IRAK-1-4 Inhibitor I -0.177

SLC15A4 (UniProt Q8N697)
inactive: erlotinib 0.024 | [1] 0.152 | [2] -0.08 | [3] 0.114 | [6] -0.006 | [5] -0.167 | [7] -0.058 | [8] 0.05

SF3B2 (UniProt E9PJ04)
inactive: erlotinib -0.166 | [2] 0.042 | [6] -0.07

SH3GLB2 (UniProt Q9NR46)
inactive: erlotinib -0.06 | [1] 0.039 | [2] 0.009 | [3] 0.006 | [6] -0.025 | [4] -0.035 | [5] -0.025 | [7] -0.056 | [8] -0.042 | IRAK-1-4 Inhibitor I -0.017

SGMS1 (UniProt Q86VZ5)
inactive: erlotinib -0.005 | [1] 0.092 | [2] -0.018 | [3] 0.006 | [4] -0.023 | [5] -0.102 | [7] -0.059 | [8] -0.006 | IRAK-1-4 Inhibitor I 0.01

Pulled one by one from the list above, two records:
SIPA1L1 (UniProt O43166)
inactive: erlotinib 0.02 | [1] -0.161 | [2] -0.001 | [3] -0.022 | [6] -0.043 | [4] -0.061 | [5] 0.021 | [7] 0.022 | [8] 0.058 | IRAK-1-4 Inhibitor I -0.052

SHMT2 (UniProt P34897)
inactive: erlotinib 0.001 | [1] 0.044 | [2] -0.005 | [3] -0.01 | [6] 0.012 | [4] -0.007 | [5] 0.02 | [7] 0.012 | [8] -0.01 | IRAK-1-4 Inhibitor I 0.025

(list continues)

SGK3 (UniProt Q96BR1)
inactive: erlotinib -0.396 | [1] 0.147 | [2] 0.152 | [3] 0.042 | [4] 0.194 | [5] 0.141 | IRAK-1-4 Inhibitor I -0.051

SLC1A4 (UniProt P43007)
inactive: erlotinib 0.004 | [1] -0.018 | [2] 0.041 | [3] 0.005 | [6] 0.001 | [4] -0.023 | [5] -0.024 | [7] -0.015 | [8] -0.008 | IRAK-1-4 Inhibitor I -0.015

SIX4 (UniProt Q9UIU6)
inactive: erlotinib -0.011 | [2] -0.025 | [6] 0.052 | [4] -0.016 | [7] -0.171 | [8] 0.083 | IRAK-1-4 Inhibitor I -0.063

SFT2D2 (UniProt O95562)
inactive: erlotinib 0.074 | [1] -0.11 | [2] -0.118 | [3] -0.017 | [6] -0.047 | [4] -0.058 | [5] 0.069 | [7] 0.013 | [8] -0.068 | IRAK-1-4 Inhibitor I 0.024
